The supplement of paper PMC12067093, “Discovery and optimisation of a covalent ligand for TRIM25 and its application to targeted protein ubiquitination” (Chemical Science, 2025)
This is one part of the list.

Protein sequences, listed by entry. Tags and fused reporters are not part of them. Lines headed by an entry give the natural chain unless they say otherwise; changes in a name come on top.
UniProt Q9H8W4: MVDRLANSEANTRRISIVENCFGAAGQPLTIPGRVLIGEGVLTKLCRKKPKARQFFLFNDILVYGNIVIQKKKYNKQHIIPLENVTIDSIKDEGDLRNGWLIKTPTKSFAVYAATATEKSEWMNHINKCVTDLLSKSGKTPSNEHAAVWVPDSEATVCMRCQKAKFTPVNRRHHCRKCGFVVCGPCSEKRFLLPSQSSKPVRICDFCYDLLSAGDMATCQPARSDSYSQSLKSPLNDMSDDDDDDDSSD
UniProt P29590: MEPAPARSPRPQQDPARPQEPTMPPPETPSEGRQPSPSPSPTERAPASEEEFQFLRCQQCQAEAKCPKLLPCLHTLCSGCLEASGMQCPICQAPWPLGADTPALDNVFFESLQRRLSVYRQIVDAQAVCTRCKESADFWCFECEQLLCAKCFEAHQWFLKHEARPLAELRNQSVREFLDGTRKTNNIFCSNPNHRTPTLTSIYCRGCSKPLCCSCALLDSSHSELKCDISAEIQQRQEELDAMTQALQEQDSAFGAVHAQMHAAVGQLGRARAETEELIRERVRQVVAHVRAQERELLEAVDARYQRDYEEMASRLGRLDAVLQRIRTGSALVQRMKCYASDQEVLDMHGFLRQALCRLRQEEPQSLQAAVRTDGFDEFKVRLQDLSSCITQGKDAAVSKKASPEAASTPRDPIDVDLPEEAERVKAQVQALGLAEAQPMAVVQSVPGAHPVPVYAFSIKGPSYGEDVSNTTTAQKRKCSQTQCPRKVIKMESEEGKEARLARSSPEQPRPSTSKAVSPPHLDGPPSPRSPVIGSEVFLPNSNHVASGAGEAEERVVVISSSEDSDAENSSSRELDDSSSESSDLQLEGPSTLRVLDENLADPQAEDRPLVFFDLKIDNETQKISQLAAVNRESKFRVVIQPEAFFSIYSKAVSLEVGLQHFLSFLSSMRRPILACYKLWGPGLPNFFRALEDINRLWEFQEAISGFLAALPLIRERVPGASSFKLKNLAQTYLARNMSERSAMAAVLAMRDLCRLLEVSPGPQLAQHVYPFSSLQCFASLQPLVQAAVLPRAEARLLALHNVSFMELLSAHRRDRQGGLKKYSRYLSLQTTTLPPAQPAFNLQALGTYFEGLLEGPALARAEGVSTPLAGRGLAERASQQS
UniProt Q9NVS9: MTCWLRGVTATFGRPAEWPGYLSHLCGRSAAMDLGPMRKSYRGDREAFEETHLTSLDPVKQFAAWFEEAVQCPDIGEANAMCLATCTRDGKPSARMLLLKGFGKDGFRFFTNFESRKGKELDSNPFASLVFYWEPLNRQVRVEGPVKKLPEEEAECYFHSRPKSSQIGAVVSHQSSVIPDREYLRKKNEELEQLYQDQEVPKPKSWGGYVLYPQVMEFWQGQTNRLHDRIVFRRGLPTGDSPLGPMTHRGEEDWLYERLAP
UniProt P54277: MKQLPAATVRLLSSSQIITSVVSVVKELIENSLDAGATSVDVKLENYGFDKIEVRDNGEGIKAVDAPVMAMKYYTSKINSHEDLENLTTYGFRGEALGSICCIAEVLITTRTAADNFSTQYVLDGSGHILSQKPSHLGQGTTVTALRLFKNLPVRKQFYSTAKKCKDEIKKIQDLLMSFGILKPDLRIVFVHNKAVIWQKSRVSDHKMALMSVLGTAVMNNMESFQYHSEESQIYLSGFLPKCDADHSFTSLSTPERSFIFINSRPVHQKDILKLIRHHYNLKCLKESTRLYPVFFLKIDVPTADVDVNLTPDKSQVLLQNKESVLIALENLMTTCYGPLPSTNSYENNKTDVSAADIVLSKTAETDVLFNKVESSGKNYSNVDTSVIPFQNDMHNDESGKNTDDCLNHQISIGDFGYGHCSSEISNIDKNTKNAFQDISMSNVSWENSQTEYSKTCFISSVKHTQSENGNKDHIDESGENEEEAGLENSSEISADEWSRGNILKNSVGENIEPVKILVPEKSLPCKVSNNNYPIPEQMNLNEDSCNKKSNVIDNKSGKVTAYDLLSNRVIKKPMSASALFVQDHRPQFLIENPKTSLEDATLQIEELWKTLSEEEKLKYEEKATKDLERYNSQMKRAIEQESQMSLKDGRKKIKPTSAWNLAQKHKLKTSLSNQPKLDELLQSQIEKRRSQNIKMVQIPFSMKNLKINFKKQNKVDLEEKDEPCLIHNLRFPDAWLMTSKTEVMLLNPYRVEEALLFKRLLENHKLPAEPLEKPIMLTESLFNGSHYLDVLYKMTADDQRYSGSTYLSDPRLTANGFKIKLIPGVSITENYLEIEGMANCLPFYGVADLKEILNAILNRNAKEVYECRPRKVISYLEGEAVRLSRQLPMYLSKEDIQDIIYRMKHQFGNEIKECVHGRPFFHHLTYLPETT
UniProt P08567: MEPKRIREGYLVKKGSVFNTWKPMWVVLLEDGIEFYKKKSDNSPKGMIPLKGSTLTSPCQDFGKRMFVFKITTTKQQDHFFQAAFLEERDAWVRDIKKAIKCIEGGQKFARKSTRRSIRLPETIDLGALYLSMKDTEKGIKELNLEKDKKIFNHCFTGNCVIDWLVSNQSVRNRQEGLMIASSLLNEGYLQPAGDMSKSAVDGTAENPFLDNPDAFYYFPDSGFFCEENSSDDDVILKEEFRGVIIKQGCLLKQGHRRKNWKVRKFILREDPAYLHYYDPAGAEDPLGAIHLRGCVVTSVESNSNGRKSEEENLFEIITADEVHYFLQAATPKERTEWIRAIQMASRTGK
UniProt O15031: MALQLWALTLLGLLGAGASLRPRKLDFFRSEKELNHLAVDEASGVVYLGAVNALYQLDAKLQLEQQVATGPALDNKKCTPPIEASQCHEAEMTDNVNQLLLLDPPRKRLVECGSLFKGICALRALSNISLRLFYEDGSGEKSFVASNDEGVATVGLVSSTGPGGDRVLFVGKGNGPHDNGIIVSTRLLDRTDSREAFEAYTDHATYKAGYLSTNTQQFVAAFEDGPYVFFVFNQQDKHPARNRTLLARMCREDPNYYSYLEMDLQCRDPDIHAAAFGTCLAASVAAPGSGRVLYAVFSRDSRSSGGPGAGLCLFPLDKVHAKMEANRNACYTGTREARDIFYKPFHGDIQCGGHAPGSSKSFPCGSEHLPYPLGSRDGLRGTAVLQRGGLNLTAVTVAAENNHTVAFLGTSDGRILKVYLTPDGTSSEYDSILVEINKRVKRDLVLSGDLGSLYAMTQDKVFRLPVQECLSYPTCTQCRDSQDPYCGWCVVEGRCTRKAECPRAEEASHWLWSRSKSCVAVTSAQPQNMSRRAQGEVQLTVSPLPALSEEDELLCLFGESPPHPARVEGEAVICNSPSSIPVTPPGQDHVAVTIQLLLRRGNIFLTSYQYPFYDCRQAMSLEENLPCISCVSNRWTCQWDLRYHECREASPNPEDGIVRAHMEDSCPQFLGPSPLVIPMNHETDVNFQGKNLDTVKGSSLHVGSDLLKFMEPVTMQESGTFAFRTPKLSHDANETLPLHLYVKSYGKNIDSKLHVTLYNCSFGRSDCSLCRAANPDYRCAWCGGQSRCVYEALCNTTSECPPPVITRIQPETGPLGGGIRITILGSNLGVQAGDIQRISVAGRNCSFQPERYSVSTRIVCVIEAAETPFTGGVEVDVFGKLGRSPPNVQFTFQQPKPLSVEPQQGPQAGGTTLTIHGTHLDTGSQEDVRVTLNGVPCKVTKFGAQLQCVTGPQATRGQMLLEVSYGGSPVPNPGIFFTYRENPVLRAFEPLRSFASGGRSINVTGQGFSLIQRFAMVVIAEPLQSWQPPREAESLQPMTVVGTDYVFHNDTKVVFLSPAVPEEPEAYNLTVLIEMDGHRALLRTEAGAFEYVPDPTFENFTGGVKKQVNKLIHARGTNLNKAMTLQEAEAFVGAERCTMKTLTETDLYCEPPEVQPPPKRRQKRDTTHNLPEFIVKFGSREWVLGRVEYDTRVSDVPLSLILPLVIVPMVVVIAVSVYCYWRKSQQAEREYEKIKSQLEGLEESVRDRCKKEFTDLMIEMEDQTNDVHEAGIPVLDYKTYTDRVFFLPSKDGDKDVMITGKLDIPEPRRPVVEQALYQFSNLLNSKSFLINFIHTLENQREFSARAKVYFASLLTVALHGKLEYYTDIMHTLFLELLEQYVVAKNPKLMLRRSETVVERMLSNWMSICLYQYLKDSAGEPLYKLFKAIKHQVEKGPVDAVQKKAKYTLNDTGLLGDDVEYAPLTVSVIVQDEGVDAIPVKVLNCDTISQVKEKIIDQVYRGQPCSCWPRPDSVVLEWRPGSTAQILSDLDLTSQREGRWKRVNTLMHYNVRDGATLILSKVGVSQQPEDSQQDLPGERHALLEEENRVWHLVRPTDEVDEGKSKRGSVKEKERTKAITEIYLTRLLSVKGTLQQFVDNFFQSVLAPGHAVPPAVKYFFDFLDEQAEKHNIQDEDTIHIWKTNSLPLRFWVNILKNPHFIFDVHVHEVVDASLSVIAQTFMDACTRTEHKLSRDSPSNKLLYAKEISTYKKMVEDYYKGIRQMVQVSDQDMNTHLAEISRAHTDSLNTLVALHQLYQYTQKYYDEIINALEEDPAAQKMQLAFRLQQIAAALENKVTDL
UniProt Q9UPR0: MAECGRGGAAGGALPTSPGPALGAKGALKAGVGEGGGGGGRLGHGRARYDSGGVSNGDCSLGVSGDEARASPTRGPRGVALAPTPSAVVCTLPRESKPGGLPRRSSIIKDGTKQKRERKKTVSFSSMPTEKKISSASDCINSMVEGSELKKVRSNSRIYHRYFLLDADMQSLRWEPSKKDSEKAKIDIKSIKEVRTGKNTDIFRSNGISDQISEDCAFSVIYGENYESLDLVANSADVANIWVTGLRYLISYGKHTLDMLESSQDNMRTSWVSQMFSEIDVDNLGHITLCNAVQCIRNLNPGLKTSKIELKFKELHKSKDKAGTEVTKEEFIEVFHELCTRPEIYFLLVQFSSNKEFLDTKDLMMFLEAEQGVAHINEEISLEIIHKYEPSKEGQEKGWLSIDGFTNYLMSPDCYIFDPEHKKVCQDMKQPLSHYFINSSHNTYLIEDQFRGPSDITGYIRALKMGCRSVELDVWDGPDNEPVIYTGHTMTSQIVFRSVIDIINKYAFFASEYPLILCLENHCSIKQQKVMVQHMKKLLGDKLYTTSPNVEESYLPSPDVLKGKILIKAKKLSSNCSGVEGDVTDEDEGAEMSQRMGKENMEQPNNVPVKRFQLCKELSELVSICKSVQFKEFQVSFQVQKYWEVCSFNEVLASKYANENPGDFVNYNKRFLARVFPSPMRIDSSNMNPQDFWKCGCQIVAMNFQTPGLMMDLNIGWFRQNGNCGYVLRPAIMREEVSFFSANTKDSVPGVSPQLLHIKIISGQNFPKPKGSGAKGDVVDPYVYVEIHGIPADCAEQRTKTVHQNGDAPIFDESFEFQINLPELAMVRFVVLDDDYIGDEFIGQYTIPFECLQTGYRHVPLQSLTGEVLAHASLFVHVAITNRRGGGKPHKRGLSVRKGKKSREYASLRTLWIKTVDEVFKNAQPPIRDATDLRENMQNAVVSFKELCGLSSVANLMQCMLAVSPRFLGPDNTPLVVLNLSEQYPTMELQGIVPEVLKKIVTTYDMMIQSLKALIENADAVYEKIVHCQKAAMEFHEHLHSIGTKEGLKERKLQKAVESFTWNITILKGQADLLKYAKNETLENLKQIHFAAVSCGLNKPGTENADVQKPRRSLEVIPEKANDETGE
UniProt Q8N490: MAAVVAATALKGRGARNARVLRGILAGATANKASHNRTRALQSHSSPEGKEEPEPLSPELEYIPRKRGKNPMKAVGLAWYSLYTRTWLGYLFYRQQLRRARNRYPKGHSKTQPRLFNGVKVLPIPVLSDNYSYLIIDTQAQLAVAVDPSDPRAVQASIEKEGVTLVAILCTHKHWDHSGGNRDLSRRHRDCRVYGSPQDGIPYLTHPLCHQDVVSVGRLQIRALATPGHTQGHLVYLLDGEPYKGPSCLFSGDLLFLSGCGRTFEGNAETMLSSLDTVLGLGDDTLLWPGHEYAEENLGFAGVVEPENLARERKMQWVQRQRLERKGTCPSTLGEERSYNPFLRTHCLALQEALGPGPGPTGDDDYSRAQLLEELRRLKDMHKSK
UniProt Q10713: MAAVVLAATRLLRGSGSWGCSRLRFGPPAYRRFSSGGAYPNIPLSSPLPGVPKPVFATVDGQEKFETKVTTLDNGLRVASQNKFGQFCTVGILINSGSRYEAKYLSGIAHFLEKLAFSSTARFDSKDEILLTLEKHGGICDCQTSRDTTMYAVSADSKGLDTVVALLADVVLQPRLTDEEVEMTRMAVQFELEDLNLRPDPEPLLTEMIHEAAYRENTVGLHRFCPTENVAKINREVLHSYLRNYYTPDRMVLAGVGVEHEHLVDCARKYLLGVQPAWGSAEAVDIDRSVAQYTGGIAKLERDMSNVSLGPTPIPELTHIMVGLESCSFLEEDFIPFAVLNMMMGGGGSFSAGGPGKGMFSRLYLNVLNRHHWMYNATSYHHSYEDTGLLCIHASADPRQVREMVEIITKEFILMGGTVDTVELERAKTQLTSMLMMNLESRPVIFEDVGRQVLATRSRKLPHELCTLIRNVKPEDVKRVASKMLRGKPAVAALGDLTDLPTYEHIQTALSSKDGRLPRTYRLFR

Compound: Cc1cc(ccc1-c1ccccc1)C(=O)N1CCCN(CC1)C(=O)CCl [compound 10]
Assay: probe-labelled cysteine peptide fold change vs DMSO (competition) (log2 fold change); higher = less target engagement (more negative = stronger competition)
Conditions: 10 µM; THP-1; incubation time: 4 h
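Further: competitive profiling in live THP-1 cells: cysteine peptides tagged with an iodoacetamide desthiobiotin (IA-DTB) probe, intensity after compound treatment relative to DMSO-treated cells.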

| Target | probe-labelled cysteine peptide fold change |
| --- | --- |
| PLEKHF2_Q9H8W4_158_TPSNEHAAVWVPDSEATVCMR (UniProt Q9H8W4) | 0.0069 |
| PLEC_Q15149_3299_GCLDEETSR (UniProt Q15149) | -0.283 |
| PIP4K2A_P48426_343_CHENSPR (UniProt P48426) | -0.141 |
| PLAA_Q9Y263_666_TFCNCFVGQAGQK (UniProt Q9Y263) | 0.0737 |
| PML_P29590_140+143_ESADFWCFECEQLLCAK (UniProt P29590) | 0.0944 |
| PKM_P14618_423_CCSGAIIVLTK (UniProt P14618) | -0.268 |
| PLEKHB2_Q96CS7_75_DCMLQIVCR (UniProt Q96CS7) | -0.0309 |
| PLEKHO2_Q8TD55_135_SCALEHVTR (UniProt Q8TD55) | -0.12 |
| PML_P29590_338_CYASDQEVLDMHGFLR (UniProt P29590) | -0.137 |
| PNPO_Q9NVS9_156_LPEEEAECYFHSRPK (UniProt Q9NVS9) | -0.184 |
| PLCB3_Q01970_358_QALLWGCR (UniProt Q01970) | -0.0263 |
| PIKFYVE_Q9Y2I7_1498_QSLCEVLQAWNNR (UniProt Q9Y2I7) | -0.165 |
| PMS1_P54277_915_ECVHGR (UniProt P54277) | 0.125 |
| PKN1_Q16512_469_HEVQLDMEPQGCLVAEVTFR (UniProt Q16512) | -0.0224 |
| PKM_P14618_474_GIFPVLCKDPVQEAWAEDVDLR (UniProt P14618) | -0.0504 |
| PKN1_Q16512_662_KGDIVARDEVESLMCEK (UniProt Q16512) | -0.0461 |
| PML_P29590_479+484_CSQTQCPR (UniProt P29590) | -0.494 |
| PLCG2_P16885_355_CIELDCWDGPDGKPVIYHGWTR (UniProt P16885) | -0.00939 |
| PIKFYVE_Q9Y2I7_807_MTQGDLVMSMDQLLTKPHLGTCHK (UniProt Q9Y2I7) | -0.034 |

| Target | probe-labelled cysteine peptide fold change |
| --- | --- |
| PLCB2_Q00722_945_GAAQLAELGPPGVGGVGACK (UniProt Q00722) | -0.565 |
| PLEK_P08567_59_GSTLTSPCQDFGK (UniProt P08567) | -0.108 |
| PLXNB2_O15031_489_DSQDPYCGWCVVEGR (UniProt O15031) | 0.00996 |
| PLCG2_P16885_849_QIIEDNPLGSLCR (UniProt P16885) | 0.158 |
| PLCL2_Q9UPR0_794_GDVVDPYVYVEIHGIPADCAEQR (UniProt Q9UPR0) | -0.457 |
| PLCB2_Q00722_1169_ACECPPELCEQDPLIAK (UniProt Q00722) | -0.243 |
| PLXND1_Q9Y4D7_445_KLNIQLQPEQLDCGAAHLQHPLSILQPLK (UniProt Q9Y4D7) | 0.207 |
| PNKD_Q8N490_170_EGVTLVAILCTHK (UniProt Q8N490) | 0.102 |
| PLRG1_O43660_468_VHAAVQPGSLDSESGIFACAFDQSESR (UniProt O43660) | 0.205 |
| PLPPR3_Q6T4P5_54_VGFQCYDR (UniProt Q6T4P5) | 0.0225 |
| PLG_P00747_398_KCQSWSSMTPHR (UniProt P00747) | -0.213 |
| PLD1_Q13393_1004_CLPNDEVHNLIQLR (UniProt Q13393) | 0.182 |
| PNP_P00491_31_HRPQVAIICGSGLGGLTDK (UniProt P00491) | 0.0835 |
| PLEKHA2_Q9HB19_11_ICGFLDIEEHENSGK (UniProt Q9HB19) | -0.114 |
| PMPCA_Q10713_225_FCPTENVAK (UniProt Q10713) | -0.0665 |
| PLS3_P13797_33_VDLNSNGFICDYELHELFK (UniProt P13797) | 0.358 |
| PIK3CD_O00329_90_LCDVQPFLPVLR (UniProt O00329) | -0.171 |
| PINX1_Q96BK5_94_NNHLGLGATINNEDNWIAHQDDFNQLLAELNTCHGQETTDSSDKK (UniProt Q96BK5) | 0.15 |
| PLEKHF2_Q9H8W4_129_CVTDLLSK (UniProt Q9H8W4) | 0.227 |

Same assay, conditions: 50 µM; THP-1; incubation time: 4 h

| Target | probe-labelled cysteine peptide fold change |
| --- | --- |
| PLEKHF2_Q9H8W4_158_TPSNEHAAVWVPDSEATVCMR (UniProt Q9H8W4) | -0.416 |
| PLEC_Q15149_3299_GCLDEETSR (UniProt Q15149) | -0.509 |
| PIP4K2A_P48426_343_CHENSPR (UniProt P48426) | -0.00428 |
| PLAA_Q9Y263_666_TFCNCFVGQAGQK (UniProt Q9Y263) | -0.113 |
| PML_P29590_140+143_ESADFWCFECEQLLCAK (UniProt P29590) | -0.116 |
| PKM_P14618_423_CCSGAIIVLTK (UniProt P14618) | -0.801 |
| PLEKHB2_Q96CS7_75_DCMLQIVCR (UniProt Q96CS7) | -0.0334 |
| PLEKHO2_Q8TD55_135_SCALEHVTR (UniProt Q8TD55) | -0.281 |
| PML_P29590_338_CYASDQEVLDMHGFLR (UniProt P29590) | -0.0376 |
| PNPO_Q9NVS9_156_LPEEEAECYFHSRPK (UniProt Q9NVS9) | -0.375 |
| PLCB3_Q01970_358_QALLWGCR (UniProt Q01970) | -0.23 |
| PIKFYVE_Q9Y2I7_1498_QSLCEVLQAWNNR (UniProt Q9Y2I7) | -0.0127 |
| PMS1_P54277_915_ECVHGR (UniProt P54277) | 0.329 |
| PKN1_Q16512_469_HEVQLDMEPQGCLVAEVTFR (UniProt Q16512) | 0.309 |
| PKM_P14618_474_GIFPVLCKDPVQEAWAEDVDLR (UniProt P14618) | -0.646 |
| PKN1_Q16512_662_KGDIVARDEVESLMCEK (UniProt Q16512) | -0.217 |
| PML_P29590_479+484_CSQTQCPR (UniProt P29590) | -1.17 |
| PLCG2_P16885_355_CIELDCWDGPDGKPVIYHGWTR (UniProt P16885) | -0.0755 |
| PIKFYVE_Q9Y2I7_807_MTQGDLVMSMDQLLTKPHLGTCHK (UniProt Q9Y2I7) | -0.209 |

| Target | probe-labelled cysteine peptide fold change |
| --- | --- |
| PLCB2_Q00722_945_GAAQLAELGPPGVGGVGACK (UniProt Q00722) | -0.898 |
| PLEK_P08567_59_GSTLTSPCQDFGK (UniProt P08567) | 0.119 |
| PLXNB2_O15031_489_DSQDPYCGWCVVEGR (UniProt O15031) | -0.141 |
| PLCG2_P16885_849_QIIEDNPLGSLCR (UniProt P16885) | 0.00581 |
| PLCL2_Q9UPR0_794_GDVVDPYVYVEIHGIPADCAEQR (UniProt Q9UPR0) | -0.334 |
| PLCB2_Q00722_1169_ACECPPELCEQDPLIAK (UniProt Q00722) | -0.299 |
| PLXND1_Q9Y4D7_445_KLNIQLQPEQLDCGAAHLQHPLSILQPLK (UniProt Q9Y4D7) | -0.987 |
| PNKD_Q8N490_170_EGVTLVAILCTHK (UniProt Q8N490) | 0.121 |
| PLRG1_O43660_468_VHAAVQPGSLDSESGIFACAFDQSESR (UniProt O43660) | 0.49 |
| PLPPR3_Q6T4P5_54_VGFQCYDR (UniProt Q6T4P5) | 0.0956 |
| PLG_P00747_398_KCQSWSSMTPHR (UniProt P00747) | -0.484 |
| PLD1_Q13393_1004_CLPNDEVHNLIQLR (UniProt Q13393) | 0.144 |
| PNP_P00491_31_HRPQVAIICGSGLGGLTDK (UniProt P00491) | 0.096 |
| PLEKHA2_Q9HB19_11_ICGFLDIEEHENSGK (UniProt Q9HB19) | -0.0094 |
| PMPCA_Q10713_225_FCPTENVAK (UniProt Q10713) | -0.0517 |
| PLS3_P13797_33_VDLNSNGFICDYELHELFK (UniProt P13797) | 0.113 |
| PIK3CD_O00329_90_LCDVQPFLPVLR (UniProt O00329) | -0.318 |
| PINX1_Q96BK5_94_NNHLGLGATINNEDNWIAHQDDFNQLLAELNTCHGQETTDSSDKK (UniProt Q96BK5) | 0.124 |
| PLEKHF2_Q9H8W4_129_CVTDLLSK (UniProt Q9H8W4) | 0.24 |
